Source: the supplement of paper PMC6411743
± gives the standard deviation of the averaged measurements. The list shows a part of the results.

The chains behind the UniProt entries cited, without tags or fusion partners. Where a name states a change or a piece, a line headed by the entry shows the natural chain unless it says otherwise.
UniProt Q15120, whole entry, looked up: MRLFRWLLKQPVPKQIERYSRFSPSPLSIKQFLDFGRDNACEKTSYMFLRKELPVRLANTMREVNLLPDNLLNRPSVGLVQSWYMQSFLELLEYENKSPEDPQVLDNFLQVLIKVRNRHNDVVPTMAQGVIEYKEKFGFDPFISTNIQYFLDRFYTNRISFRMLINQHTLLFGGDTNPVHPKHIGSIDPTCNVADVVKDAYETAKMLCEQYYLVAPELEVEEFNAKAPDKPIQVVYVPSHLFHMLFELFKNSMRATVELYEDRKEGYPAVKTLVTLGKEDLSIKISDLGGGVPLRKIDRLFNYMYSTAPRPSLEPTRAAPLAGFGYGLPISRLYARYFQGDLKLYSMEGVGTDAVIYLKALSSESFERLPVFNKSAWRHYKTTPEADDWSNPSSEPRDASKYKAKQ
UniProt Q14997: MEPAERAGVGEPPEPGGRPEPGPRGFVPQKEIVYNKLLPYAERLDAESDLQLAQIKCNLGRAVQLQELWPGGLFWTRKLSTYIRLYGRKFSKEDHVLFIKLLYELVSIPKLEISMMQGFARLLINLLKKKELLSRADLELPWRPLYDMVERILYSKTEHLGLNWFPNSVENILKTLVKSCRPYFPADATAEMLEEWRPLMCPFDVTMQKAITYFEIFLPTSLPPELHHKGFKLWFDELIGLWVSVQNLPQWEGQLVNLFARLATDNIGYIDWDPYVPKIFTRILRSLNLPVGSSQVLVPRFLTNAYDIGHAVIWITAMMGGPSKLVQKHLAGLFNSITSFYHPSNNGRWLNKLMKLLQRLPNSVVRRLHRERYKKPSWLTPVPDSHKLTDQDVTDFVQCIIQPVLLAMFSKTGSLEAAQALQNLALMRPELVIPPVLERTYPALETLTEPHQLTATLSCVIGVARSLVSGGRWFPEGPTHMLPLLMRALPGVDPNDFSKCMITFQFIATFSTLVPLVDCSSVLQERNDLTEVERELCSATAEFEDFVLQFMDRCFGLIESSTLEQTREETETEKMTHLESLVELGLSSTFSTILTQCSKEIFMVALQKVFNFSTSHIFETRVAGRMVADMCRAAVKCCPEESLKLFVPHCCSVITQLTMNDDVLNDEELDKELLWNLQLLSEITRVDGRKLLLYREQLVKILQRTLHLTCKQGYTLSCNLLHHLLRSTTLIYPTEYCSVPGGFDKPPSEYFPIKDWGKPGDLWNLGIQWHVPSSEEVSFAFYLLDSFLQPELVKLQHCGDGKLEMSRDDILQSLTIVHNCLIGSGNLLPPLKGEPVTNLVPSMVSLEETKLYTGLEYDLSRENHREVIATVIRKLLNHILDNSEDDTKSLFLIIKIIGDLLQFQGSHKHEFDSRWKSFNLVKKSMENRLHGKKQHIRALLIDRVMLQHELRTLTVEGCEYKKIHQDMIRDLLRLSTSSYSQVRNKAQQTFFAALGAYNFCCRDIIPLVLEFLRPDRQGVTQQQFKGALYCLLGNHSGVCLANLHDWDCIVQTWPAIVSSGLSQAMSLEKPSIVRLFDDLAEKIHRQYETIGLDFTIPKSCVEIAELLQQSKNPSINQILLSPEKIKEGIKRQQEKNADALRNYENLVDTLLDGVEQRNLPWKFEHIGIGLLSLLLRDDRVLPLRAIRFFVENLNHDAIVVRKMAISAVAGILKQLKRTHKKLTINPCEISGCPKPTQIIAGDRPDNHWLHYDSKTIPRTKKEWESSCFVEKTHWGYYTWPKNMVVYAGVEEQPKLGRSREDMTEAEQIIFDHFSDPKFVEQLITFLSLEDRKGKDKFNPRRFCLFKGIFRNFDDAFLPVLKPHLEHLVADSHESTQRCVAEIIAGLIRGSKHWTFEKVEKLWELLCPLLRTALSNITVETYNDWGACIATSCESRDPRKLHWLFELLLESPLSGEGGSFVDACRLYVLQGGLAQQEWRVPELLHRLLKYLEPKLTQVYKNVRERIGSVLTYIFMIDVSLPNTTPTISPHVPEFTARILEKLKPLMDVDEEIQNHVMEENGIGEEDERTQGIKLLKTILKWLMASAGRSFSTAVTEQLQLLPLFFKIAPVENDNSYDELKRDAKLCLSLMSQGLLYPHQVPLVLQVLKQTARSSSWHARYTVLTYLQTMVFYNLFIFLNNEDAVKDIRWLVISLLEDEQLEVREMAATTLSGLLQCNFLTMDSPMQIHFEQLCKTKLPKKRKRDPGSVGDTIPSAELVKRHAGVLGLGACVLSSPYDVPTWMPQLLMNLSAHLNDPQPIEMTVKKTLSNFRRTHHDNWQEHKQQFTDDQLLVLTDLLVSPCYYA
UniProt Q5SRI9: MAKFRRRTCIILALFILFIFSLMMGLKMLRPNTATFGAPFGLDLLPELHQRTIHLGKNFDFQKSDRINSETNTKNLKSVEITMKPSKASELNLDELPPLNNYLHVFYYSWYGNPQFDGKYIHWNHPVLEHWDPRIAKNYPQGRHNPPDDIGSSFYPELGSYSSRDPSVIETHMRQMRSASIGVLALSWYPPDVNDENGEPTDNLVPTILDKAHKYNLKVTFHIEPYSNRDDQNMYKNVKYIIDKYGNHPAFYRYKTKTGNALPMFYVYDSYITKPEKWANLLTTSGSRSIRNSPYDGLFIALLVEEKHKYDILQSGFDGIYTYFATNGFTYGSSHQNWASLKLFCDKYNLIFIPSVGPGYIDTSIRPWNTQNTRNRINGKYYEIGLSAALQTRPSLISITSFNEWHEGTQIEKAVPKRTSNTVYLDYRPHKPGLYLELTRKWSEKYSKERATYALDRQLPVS
UniProt Q9UKM9: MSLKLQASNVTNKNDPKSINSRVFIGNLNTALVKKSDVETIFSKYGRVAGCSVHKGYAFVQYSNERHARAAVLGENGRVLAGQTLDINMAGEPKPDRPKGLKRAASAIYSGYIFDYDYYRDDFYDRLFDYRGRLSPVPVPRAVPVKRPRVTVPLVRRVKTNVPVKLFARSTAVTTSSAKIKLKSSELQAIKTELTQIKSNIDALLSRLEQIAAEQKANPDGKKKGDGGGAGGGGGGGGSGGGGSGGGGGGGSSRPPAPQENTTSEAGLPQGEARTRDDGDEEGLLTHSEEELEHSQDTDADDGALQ
UniProt Q49B96: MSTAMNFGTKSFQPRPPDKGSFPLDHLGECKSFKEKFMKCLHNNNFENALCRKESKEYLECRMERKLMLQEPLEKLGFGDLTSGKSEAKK
UniProt Q15059, whole entry, looked up: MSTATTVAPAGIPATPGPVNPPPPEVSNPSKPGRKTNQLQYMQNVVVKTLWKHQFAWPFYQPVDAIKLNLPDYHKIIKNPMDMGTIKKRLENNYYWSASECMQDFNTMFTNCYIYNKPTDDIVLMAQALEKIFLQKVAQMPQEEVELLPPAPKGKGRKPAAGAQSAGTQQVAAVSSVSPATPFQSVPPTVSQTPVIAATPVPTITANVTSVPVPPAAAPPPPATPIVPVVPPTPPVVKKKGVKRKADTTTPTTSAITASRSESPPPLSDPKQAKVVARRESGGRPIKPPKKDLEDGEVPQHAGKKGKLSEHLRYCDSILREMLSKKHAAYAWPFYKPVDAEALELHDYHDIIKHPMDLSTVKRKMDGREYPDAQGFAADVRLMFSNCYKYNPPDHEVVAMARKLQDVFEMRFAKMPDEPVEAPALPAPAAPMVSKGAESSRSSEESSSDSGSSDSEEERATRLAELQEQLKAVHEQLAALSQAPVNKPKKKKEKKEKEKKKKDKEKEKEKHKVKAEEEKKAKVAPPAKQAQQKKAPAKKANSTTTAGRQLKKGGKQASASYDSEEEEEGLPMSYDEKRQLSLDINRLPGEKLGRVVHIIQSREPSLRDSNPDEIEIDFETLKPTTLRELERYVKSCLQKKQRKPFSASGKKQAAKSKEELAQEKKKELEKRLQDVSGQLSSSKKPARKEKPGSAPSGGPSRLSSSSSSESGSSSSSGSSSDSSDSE
UniProt Q14847: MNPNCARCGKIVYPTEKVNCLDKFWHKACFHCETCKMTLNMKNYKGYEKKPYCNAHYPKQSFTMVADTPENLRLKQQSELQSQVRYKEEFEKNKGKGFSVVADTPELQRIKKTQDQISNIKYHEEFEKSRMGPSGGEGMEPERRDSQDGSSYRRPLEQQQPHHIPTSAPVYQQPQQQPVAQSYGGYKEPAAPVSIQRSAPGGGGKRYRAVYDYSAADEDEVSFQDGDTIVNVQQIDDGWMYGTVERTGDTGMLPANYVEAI
UniProt Q16630, whole entry: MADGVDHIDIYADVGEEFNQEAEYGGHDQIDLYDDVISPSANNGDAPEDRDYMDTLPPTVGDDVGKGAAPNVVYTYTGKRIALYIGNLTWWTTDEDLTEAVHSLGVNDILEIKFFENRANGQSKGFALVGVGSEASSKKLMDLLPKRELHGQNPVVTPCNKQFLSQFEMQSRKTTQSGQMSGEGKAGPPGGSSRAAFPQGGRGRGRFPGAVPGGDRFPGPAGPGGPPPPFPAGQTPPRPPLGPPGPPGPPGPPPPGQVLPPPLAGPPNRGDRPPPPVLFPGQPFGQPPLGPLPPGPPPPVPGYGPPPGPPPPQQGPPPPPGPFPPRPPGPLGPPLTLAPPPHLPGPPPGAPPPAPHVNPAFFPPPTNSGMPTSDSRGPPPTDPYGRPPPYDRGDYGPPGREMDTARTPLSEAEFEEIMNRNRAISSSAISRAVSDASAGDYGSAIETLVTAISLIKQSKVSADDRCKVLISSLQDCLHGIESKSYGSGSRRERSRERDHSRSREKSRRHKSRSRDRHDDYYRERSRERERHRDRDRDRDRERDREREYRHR
UniProt Q2KHT3: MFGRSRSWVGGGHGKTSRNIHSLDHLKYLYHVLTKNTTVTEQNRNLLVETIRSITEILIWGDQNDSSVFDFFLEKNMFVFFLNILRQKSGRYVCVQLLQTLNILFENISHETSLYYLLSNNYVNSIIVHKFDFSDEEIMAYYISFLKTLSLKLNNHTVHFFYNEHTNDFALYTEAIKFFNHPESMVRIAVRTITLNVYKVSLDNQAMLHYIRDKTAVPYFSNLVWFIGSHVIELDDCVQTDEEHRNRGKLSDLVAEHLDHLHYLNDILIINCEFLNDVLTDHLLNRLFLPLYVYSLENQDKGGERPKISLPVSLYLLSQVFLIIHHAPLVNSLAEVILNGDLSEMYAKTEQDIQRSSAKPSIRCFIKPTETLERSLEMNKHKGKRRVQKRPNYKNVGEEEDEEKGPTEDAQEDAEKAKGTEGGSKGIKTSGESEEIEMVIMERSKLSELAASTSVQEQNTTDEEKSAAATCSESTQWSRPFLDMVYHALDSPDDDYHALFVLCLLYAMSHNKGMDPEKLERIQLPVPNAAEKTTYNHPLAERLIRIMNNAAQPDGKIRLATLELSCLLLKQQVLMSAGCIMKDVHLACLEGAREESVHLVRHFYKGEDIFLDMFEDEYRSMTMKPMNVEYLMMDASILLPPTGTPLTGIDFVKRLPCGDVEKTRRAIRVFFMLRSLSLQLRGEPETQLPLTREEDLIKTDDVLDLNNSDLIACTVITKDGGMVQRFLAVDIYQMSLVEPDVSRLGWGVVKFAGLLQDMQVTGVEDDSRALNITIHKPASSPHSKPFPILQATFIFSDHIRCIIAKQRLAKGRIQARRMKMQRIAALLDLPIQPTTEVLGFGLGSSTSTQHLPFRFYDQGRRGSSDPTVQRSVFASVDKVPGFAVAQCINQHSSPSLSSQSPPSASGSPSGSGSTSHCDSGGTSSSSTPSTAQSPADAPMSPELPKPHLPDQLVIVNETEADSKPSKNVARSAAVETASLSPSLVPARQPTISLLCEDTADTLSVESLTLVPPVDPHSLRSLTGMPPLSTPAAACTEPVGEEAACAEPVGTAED
UniProt Q15599: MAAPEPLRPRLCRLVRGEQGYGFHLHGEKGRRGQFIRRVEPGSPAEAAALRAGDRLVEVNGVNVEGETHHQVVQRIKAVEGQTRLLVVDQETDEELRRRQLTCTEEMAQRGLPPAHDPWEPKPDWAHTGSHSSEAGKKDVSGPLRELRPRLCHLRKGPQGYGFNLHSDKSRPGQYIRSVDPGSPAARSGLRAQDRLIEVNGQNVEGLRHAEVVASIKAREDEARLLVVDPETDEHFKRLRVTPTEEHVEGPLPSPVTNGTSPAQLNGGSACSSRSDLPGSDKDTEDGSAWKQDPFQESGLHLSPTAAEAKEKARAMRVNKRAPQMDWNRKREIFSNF
UniProt Q5SSJ5: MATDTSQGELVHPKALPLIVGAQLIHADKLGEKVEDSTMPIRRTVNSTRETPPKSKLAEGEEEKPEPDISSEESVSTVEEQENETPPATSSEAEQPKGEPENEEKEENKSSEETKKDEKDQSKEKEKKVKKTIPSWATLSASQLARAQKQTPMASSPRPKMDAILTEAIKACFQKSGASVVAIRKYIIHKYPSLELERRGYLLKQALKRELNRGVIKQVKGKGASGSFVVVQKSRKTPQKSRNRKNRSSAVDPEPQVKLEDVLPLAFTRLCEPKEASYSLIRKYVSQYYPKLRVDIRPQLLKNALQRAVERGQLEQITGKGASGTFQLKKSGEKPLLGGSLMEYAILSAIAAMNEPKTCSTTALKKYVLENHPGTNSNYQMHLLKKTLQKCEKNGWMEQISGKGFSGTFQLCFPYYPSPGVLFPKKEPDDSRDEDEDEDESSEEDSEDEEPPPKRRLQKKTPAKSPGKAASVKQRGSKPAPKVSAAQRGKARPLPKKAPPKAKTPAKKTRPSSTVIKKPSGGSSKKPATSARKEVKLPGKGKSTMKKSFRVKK

Compound: Nc1nc2c(ncn2[C@@H]2O[C@H](COP(=O)(O)OP(=O)(O)OP(=O)(O)O)[C@@H](O)[C@H]2O)c(=O)[nH]1 [guanosine triphosphate]
Assay: NP40-soluble protein abundance relative to vehicle (solubility fold change) (ratio); higher = more soluble protein in presence of GTP
In short: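 Jurkat crude lysate (Dounce-homogenised) was treated with eight concentrations from 0.1 to 10 mM for 10 min at room temperature, then 3 min at 37 °C. It was solubilised with 0.8% NP40 and benzonase (60 min, 4 °C) and ultracentrifuged, and the supernatant was TMT-labelled for LC-MS/MS. Intensities were vsn-normalised, and the value is the fold change against the NP40-processed vehicle per replicate, from three independent experiments.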

Target | NP40-soluble protein abundance (concentration: 0.1mM) | NP40-soluble protein abundance (concentration: 0.5mM) | NP40-soluble protein abundance (concentration: 1mM) | NP40-soluble protein abundance (concentration: 2mM) | NP40-soluble protein abundance (concentration: 4mM) | NP40-soluble protein abundance (concentration: 6mM) | NP40-soluble protein abundance (concentration: 8mM) | NP40-soluble protein abundance (concentration: 10mM)
UniProt Q4V328 and related entries | 0.957 ± 0.046 | 0.926 ± 0.084 | 0.975 ± 0.092 | 0.93 ± 0.12 | 0.923 ± 0.097 | 0.909 ± 0.12 | 0.925 ± 0.072 | 0.936 ± 0.076
MAPKAPK3 (UniProt Q16644) | 0.971 ± 0.087 | 0.964 ± 0.065 | 0.935 ± 0.1 | 0.894 ± 0.11 | 0.875 ± 0.089 | 0.874 ± 0.088 | 0.887 ± 0.082 | 0.881 ± 0.096
UniProt Q15120 and related entries | 1.14 ± 0.17 | 1.21 ± 0.28 | 1.27 ± 0.31 | 1.29 ± 0.34 | 1.39 ± 0.34 | 1.31 ± 0.36 | 1.33 ± 0.33 | 1.24 ± 0.28
PSME4 (UniProt Q14997) | 1.09 ± 0.14 | 1.14 ± 0.13 | 1.12 ± 0.28 | 1.18 ± 0.18 | 1.21 ± 0.18 | 1.16 ± 0.26 | 1.11 ± 0.23 | 1.09 ± 0.23
UniProt Q15036 and related entries | 1.04 ± 0.029 | 0.996 ± 0.12 | 0.902 ± 0.073 | 0.911 ± 0.045 | 0.911 ± 0.022 | 0.902 ± 0.032 | 0.898 ± 0.086 | 0.897 ± 0.061
MANEA (UniProt Q5SRI9) | 1 ± 0.081 | 0.987 ± 0.067 | 0.951 ± 0.06 | 1.01 ± 0.075 | 0.976 ± 0.09 | 0.915 ± 0.06 | 0.913 ± 0.087 | 0.948 ± 0.056
RALBP1 (UniProt Q15311) | 0.981 ± 0.056 | 1.01 ± 0.013 | 0.991 ± 0.054 | 0.956 ± 0.05 | 0.975 ± 0.031 | 0.993 ± 0.021 | 1.02 ± 0.028 | 0.999 ± 0.045
Q5QPL9 and related entries (UniProt Q9UKM9) | 0.927 ± 0.04 | 1 ± 0.025 | 1.07 ± 0.14 | 1.07 ± 0.2 | 1.07 ± 0.28 | 1.05 ± 0.25 | 1.01 ± 0.24 | 0.949 ± 0.23
COX19 (UniProt Q49B96) | 1.15 ± 0.16 | 0.953 ± 0.12 | 1.12 ± 0.13 | 0.982 ± 0.11 | 1.09 ± 0.19 | 0.927 ± 0.13 | 1.05 ± 0.12 | 0.911 ± 0.1
UniProt Q5T5Y3 and related entries | 1.075 ± 0.0042 | 0.976 ± 0.061 | 1.04 ± 0.023 | 0.997 ± 0.077 | 0.97 ± 0.047 | 0.957 ± 0.06 | 0.988 ± 0.047 | 0.966 ± 0.025
UniProt Q3B7T1 and related entries | 1.1 ± 0.089 | 1.07 ± 0.055 | 1.05 ± 0.045 | 1.09 ± 0.041 | 1.05 ± 0.028 | 1.03 ± 0.043 | 1.09 ± 0.023 | 1.08 ± 0.049
BRD3 (UniProt Q15059) | 0.961 ± 0.043 | 0.986 ± 0.097 | 1.08 ± 0.11 | 1.08 ± 0.14 | 1.13 ± 0.088 | 1.11 ± 0.11 | 1.19 ± 0.098 | 1.21 ± 0.14
LASP1 (UniProt Q14847) | 0.911 ± 0.051 | 0.899 ± 0.06 | 0.922 ± 0.088 | 0.849 ± 0.12 | 0.852 ± 0.1 | 0.852 ± 0.1 | 0.879 ± 0.076 | 0.856 ± 0.1
UniProt Q16630 and related entries | 1.16 ± 0.012 | 1.64 ± 0.098 | 1.95 ± 0.22 | 2.23 ± 0.3 | 2.49 ± 0.41 | 2.58 ± 0.45 | 2.71 ± 0.58 | 2.75 ± 0.56
UniProt Q2KHT3 and related entries | 0.937 ± 0.024 | 0.969 ± 0.016 | 0.963 ± 0.055 | 0.982 ± 0.08 | 0.957 ± 0.12 | 0.954 ± 0.097 | 0.968 ± 0.079 | 0.959 ± 0.11
UniProt Q15599 and related entries | 0.981 ± 0.14 | 0.912 ± 0.049 | 0.953 ± 0.035 | 1.02 ± 0.075 | 0.988 ± 0.05 | 1.02 ± 0.15 | 1.01 ± 0.057 | 0.982 ± 0.092
EXOSC7 (UniProt Q15024) | 1.09 ± 0.084 | 1.01 ± 0.071 | 1.06 ± 0.086 | 1.11 ± 0.12 | 1.26 ± 0.13 | 1.17 ± 0.12 | 1.22 ± 0.077 | 1.18 ± 0.061
HP1BP3 (UniProt Q5SSJ5) | 1.02 ± 0.079 | 0.97 ± 0.034 | 1.03 ± 0.041 | 1.11 ± 0.086 | 1.23 ± 0.061 | 1.26 ± 0.058 | 1.33 ± 0.1 | 1.54 ± 0.14

Part of the list above, as a markdown table.

| Target | NP40-soluble protein abundance (concentration: 0.1mM) | NP40-soluble protein abundance (concentration: 0.5mM) | NP40-soluble protein abundance (concentration: 1mM) | NP40-soluble protein abundance (concentration: 2mM) | NP40-soluble protein abundance (concentration: 4mM) | NP40-soluble protein abundance (concentration: 6mM) | NP40-soluble protein abundance (concentration: 8mM) | NP40-soluble protein abundance (concentration: 10mM) |
| --- | --- | --- | --- | --- | --- | --- | --- | --- |
| UniProt Q3B7T1 and related entries | 1.1 ± 0.089 | 1.07 ± 0.055 | 1.05 ± 0.045 | 1.09 ± 0.041 | 1.05 ± 0.028 | 1.03 ± 0.043 | 1.09 ± 0.023 | 1.08 ± 0.049 |
| BRD3 (UniProt Q15059) | 0.961 ± 0.043 | 0.986 ± 0.097 | 1.08 ± 0.11 | 1.08 ± 0.14 | 1.13 ± 0.088 | 1.11 ± 0.11 | 1.19 ± 0.098 | 1.21 ± 0.14 |
| LASP1 (UniProt Q14847) | 0.911 ± 0.051 | 0.899 ± 0.06 | 0.922 ± 0.088 | 0.849 ± 0.12 | 0.852 ± 0.1 | 0.852 ± 0.1 | 0.879 ± 0.076 | 0.856 ± 0.1 |
| UniProt Q16630 and related entries | 1.16 ± 0.012 | 1.64 ± 0.098 | 1.95 ± 0.22 | 2.23 ± 0.3 | 2.49 ± 0.41 | 2.58 ± 0.45 | 2.71 ± 0.58 | 2.75 ± 0.56 |
